From the supplement of paper PMC12823440, “Inhibitors supercharge kinase turnover through native proteolytic circuits” (Nature, 2025)
Counter-ions that a name gives are not always drawn. This is one part of the list. Hit calls seldom repeat between salt and free forms of one compound.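 Kinases, fused to nanoluciferase, were expressed in K562 cells; luminescence was measured every 4 h from 2 to 18 h as percent of control (DMSO = 100%, positive control = 0%). A time point is decreased if signal falls significantly (2 sigma). Hits were called by the authors by a rule that is not shown; the count of time points alone does not decide it.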

Protein sequences, listed by entry. Tags and fused reporters are not part of them. Lines headed by an entry give the natural chain unless they say otherwise; changes in a name come on top.
UniProt Q01974, whole entry: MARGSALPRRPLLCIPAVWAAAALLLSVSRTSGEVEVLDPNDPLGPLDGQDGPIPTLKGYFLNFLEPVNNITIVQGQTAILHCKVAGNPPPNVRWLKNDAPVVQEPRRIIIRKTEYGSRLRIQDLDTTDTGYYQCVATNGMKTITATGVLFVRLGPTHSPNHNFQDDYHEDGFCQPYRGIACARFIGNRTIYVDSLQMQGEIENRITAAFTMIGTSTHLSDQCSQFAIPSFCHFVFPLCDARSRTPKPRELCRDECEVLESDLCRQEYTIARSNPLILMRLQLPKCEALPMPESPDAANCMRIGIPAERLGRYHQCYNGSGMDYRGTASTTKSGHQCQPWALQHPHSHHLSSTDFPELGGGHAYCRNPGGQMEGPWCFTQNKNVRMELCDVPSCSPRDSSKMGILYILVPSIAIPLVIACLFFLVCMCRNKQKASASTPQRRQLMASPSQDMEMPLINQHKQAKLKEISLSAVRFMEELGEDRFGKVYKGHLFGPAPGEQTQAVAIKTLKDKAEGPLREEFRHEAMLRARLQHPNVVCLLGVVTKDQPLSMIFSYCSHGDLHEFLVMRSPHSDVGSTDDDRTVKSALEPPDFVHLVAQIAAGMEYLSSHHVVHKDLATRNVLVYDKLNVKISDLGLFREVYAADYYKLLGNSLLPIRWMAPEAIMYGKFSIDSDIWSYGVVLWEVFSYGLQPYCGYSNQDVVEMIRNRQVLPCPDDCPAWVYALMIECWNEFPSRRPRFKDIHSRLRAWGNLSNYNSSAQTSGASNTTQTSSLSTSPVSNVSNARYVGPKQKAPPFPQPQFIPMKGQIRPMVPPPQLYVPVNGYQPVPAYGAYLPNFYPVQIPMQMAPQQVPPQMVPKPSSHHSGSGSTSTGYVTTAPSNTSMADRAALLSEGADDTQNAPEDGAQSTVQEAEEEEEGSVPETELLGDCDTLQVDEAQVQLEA
UniProt Q15418, whole entry: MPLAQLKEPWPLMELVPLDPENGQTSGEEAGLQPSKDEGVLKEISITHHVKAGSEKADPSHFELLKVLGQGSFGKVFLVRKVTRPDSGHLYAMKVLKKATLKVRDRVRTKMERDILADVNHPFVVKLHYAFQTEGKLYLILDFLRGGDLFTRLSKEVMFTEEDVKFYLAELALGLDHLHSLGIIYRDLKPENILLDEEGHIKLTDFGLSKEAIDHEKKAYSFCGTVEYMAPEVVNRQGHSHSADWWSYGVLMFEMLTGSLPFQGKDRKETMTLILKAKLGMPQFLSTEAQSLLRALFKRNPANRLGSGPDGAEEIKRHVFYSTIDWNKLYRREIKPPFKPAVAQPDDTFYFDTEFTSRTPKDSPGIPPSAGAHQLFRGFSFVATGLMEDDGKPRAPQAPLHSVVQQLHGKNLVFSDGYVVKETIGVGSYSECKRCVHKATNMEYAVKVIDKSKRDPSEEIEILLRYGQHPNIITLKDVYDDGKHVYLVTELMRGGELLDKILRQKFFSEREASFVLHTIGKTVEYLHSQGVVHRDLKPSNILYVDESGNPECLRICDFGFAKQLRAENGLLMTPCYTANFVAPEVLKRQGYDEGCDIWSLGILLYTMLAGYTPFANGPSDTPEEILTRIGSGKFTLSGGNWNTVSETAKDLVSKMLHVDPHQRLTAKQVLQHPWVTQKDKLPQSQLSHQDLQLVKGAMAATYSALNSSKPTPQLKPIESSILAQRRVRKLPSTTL
UniProt Q9NYA1, whole entry: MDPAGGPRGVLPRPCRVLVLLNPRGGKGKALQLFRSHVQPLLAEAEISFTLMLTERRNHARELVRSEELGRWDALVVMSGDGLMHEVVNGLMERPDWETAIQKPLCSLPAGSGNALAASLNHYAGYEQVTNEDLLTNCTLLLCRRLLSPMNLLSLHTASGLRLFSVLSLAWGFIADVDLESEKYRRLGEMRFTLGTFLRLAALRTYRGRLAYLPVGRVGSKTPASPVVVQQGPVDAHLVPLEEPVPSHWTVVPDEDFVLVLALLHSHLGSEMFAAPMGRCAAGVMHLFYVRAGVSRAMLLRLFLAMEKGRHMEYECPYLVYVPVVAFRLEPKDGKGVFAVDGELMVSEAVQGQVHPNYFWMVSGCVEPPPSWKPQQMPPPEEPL
UniProt Q9Y6E0: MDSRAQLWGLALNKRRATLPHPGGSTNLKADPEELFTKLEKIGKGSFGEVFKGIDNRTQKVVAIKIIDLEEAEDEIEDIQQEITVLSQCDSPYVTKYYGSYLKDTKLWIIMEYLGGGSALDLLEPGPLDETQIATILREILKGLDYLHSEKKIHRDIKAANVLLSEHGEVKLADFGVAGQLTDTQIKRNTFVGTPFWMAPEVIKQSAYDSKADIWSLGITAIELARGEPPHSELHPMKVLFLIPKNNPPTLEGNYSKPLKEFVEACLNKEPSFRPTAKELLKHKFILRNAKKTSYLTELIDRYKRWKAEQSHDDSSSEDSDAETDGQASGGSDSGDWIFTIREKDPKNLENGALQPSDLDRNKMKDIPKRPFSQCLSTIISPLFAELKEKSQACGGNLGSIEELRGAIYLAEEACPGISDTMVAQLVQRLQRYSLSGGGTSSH
UniProt Q15208: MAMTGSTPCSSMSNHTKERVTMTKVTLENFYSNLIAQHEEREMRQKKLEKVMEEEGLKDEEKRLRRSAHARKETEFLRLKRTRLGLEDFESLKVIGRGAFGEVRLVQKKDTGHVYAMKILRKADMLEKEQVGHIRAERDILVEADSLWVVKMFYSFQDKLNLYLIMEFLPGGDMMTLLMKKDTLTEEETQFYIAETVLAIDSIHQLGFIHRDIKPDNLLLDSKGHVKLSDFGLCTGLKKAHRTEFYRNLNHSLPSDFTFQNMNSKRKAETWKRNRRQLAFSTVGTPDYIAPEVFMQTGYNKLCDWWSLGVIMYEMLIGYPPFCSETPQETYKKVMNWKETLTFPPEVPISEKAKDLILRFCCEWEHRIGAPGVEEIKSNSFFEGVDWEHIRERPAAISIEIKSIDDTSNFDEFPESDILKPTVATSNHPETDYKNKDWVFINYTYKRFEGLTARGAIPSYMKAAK
UniProt P42680: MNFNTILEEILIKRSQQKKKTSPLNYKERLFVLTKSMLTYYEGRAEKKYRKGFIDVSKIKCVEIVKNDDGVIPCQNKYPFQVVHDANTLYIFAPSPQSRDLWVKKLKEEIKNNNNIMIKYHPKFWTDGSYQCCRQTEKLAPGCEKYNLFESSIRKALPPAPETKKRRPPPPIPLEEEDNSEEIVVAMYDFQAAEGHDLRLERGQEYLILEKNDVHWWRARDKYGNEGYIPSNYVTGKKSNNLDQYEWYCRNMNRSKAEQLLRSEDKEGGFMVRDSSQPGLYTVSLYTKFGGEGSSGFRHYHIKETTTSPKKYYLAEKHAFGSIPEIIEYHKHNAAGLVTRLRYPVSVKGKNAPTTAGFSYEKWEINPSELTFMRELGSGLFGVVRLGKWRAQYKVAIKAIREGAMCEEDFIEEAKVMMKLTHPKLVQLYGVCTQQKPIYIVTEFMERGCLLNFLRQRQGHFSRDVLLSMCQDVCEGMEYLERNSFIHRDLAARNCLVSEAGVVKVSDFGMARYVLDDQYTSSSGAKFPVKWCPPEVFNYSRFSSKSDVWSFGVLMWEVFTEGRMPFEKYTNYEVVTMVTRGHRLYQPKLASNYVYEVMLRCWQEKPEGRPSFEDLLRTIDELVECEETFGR
UniProt Q6PHR2: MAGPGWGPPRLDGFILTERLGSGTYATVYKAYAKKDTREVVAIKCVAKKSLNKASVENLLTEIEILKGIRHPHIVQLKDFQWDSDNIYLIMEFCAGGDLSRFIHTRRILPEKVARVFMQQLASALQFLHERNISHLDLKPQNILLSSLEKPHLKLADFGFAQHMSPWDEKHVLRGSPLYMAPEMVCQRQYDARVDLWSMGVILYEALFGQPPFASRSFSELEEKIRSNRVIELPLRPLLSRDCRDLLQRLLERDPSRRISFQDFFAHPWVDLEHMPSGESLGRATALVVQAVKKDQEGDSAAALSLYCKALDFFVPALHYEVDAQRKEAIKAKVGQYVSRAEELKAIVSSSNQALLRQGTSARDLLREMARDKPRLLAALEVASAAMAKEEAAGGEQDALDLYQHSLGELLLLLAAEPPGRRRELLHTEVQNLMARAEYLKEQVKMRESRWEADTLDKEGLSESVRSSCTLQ
UniProt P07947, whole entry, looked up: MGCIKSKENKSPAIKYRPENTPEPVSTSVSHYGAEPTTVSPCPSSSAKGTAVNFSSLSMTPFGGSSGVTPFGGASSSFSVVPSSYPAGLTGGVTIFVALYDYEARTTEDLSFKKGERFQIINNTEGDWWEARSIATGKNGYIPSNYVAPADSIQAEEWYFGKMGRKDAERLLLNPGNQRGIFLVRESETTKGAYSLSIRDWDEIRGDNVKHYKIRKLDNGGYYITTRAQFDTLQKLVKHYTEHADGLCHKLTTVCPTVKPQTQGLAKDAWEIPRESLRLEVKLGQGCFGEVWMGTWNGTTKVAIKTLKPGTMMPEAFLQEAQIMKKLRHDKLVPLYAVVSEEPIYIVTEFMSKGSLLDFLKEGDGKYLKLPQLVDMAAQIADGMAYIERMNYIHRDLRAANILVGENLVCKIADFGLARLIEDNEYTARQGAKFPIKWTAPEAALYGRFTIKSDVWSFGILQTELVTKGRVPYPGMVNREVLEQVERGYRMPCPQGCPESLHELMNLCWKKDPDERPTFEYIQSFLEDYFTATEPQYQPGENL
UniProt P43403: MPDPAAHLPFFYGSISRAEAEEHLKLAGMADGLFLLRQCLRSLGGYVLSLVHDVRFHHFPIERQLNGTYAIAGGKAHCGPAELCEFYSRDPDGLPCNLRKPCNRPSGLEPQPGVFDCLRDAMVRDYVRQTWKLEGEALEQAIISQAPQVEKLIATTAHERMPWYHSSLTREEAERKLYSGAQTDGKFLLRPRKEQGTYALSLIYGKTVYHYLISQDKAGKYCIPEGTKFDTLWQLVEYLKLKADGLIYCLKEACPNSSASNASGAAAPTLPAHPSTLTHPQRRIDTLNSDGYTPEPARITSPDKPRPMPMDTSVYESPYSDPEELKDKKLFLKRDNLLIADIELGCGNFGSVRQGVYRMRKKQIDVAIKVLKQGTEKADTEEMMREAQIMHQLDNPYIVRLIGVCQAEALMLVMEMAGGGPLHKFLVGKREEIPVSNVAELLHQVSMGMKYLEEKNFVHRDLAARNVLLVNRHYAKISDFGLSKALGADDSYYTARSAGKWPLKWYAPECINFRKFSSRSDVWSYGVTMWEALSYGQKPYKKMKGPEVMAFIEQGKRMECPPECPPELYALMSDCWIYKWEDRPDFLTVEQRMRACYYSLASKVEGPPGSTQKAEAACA
UniProt P11802: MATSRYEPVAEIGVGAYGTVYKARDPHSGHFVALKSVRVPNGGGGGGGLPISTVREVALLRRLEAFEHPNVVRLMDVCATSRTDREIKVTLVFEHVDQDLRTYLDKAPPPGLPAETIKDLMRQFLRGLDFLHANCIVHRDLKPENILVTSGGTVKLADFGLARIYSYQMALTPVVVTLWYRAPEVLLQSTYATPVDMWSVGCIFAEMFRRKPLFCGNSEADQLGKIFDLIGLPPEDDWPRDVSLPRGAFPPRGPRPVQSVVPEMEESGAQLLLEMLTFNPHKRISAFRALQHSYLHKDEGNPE
UniProt P50613: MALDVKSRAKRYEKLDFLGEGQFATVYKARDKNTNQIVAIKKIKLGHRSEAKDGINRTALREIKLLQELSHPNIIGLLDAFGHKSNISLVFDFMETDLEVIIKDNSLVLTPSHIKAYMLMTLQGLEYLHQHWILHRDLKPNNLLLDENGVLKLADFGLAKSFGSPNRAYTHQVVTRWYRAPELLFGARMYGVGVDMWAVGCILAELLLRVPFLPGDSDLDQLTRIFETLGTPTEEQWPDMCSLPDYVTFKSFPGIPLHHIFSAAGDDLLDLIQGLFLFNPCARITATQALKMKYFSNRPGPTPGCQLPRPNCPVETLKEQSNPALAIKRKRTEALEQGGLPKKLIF
UniProt P50750, whole entry: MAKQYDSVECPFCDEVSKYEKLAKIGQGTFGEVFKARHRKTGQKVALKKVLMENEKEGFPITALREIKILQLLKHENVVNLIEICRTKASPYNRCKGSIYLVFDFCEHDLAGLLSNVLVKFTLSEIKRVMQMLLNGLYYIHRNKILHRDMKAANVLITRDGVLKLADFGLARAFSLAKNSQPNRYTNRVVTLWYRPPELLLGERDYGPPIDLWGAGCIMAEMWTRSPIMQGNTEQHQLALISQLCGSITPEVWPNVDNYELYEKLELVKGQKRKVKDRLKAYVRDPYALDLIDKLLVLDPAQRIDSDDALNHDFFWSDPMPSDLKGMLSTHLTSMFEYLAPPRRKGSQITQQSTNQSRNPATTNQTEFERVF

Assays:
Settings in all cases: K562; 2-18 h
[1] = target: ROR2 (UniProt Q01974); test: number of time points (of 5) at which kinase-Nluc abundance scored as decreased, DMSO-normalised (count); higher = more persistent destabilization
[2] = target: RPS6KA1 (UniProt Q15418); test: as above
[3] = target: SPHK1 (UniProt Q9NYA1); test: as above
[4] = target: SRC (UniProt P12931); test: as above
[5] = target: STK24 (UniProt Q9Y6E0); test: as above
[6] = target: STK38 (UniProt Q15208); test: as above
[7] = target: SYK (UniProt P43405); test: as above
[8] = target: TEC (UniProt P42680); test: as above
[9] = target: TYK2 (UniProt P29597); test: as above
[10] = target: ULK3 (UniProt Q6PHR2); test: as above
[11] = target: YES1 (UniProt P07947); test: as above
[12] = target: ZAK (UniProt Q9NYL2); test: as above
[13] = target: ZAP70 (UniProt P43403); test: as above
[14] = target: CDK4 (UniProt P11802); test: number of time points (of 4; 2 h point missing) at which kinase-Nluc abundance scored as decreased, DMSO-normalised (count); higher = more persistent destabilization
[15] = target: CDK7 (UniProt P50613); test: as above
[16] = target: CDK9 (UniProt P50750); test: as above

Measured: number of time points

OCCn1cc(-c2ccc3c(c2)CC/C3=N\O)c(-c2ccncc2)n1 (10 µM)
0: [1] | [2] | [3] | [4] | [5] | [6] | [7] | [8] | [9] | [10] | [11] | [12] | [13] | [14] | [15] | [16]

CCOC(=O)N1CCN(C(=O)[C@H](Cc2cccc(C(=N)N)c2)NS(=O)(=O)c2c(C(C)C)cc(C(C)C)cc2C(C)C)CC1 (10 µM)
0: [1] | [2] | [3] | [4] | [5] | [6] | [7] | [8] | [9] | [10] | [11] | [12] | [13] | [14] | [15] | [16]

CN1C(=O)N[C@H](Cc2c[nH]c3c(Cl)cccc23)C1=O [Necrostatin 2] (10 µM)
0: [1] | [2] | [3] | [4] | [5] | [6] | [7] | [8] | [9] | [10] | [11] | [12] | [13] | [14] | [15] | [16]

N#CCC1CCN(c2nc(Nc3ccc(N4CCC(O)CC4)cc3)c3c(=O)[nH]ncc3n2)CC1 [Gusacitinib] (10 µM)
0: [1] | [2] | [3] | [4] | [5] | [6] | [7] | [8] | [9] | [10] | [11] | [12] | [13] | [14] | [15] | [16]

Reprinted from the entries so far (2 entries):
CCOC(=O)N1CCN(C(=O)[C@H](Cc2cccc(C(=N)N)c2)NS(=O)(=O)c2c(C(C)C)cc(C(C)C)cc2C(C)C)CC1 (10 µM)
0: [1] | [2] | [3] | [4] | [5] | [6] | [7] | [8] | [9] | [10] | [11] | [12] | [13] | [14] | [15] | [16]

CN1C(=O)N[C@H](Cc2c[nH]c3c(Cl)cccc23)C1=O [Necrostatin 2] (10 µM)
0: [1] | [2] | [3] | [4] | [5] | [6] | [7] | [8] | [9] | [10] | [11] | [12] | [13] | [14] | [15] | [16]

Continued.

NC(=O)c1ccc(-c2nc(-c3ccc4c(c3)OCCO4)c(-c3ccccn3)[nH]2)cc1 (10 µM)
0: [1] | [2] | [3] | [4] | [5] | [6] | [7] | [8] | [9] | [10] | [11] | [12] | [13] | [14] | [15] | [16]

COc1cc(/C=C/C(=O)NCC(O)c2ccc(O)cc2)ccc1O (stereo not drawn) [N-Feruloyloctopamine] (2.5 µM)
0: [1] | [2] | [3] | [4] | [5] | [6] | [7] | [8] | [9] | [10] | [11] | [12] | [13] | [14] | [15] | [16]

Cc1ccccc1-c1c2nccc(-c3ccc(F)cc3F)c2cc[n+]1[O-] (10 µM)
0: [1] | [2] | [3] | [4] | [5] | [6] | [7] | [8] | [9] | [10] | [11] | [12] | [13] | [14] | [15] | [16]

CCOc1ccc2cc(-c3nn(CC4CCN(C)CC4)c4ncnc(N)c34)ccc2n1 (10 µM)
0: [1] | [2] | [3] | [4] | [5] | [6] | [7] | [8] | [9] | [10] | [11] | [12] | [13] | [14] | [15] | [16]

COc1cc(Nc2ncc(F)c(Nc3ccc4c(n3)N(COP(=O)(O)O)C(=O)C(C)(C)O4)n2)cc(OC)c1OC [Fostamatinib (disodium hexahydrate)] (10 µM)
1: [6] | [15]
0: [1] | [2] | [3] | [4] | [5] | [7] | [8] | [9] | [10] | [11] | [12] | [13] | [14] | [16]

C[C@@H](c1ccc(-c2ccccc2)c(F)c1)c1cc(NC(=N)N2CCOCC2)on1 [Rimacalib] (10 µM)
0: [1] | [2] | [3] | [4] | [5] | [6] | [7] | [8] | [9] | [10] | [11] | [12] | [13] | [14] | [15] | [16]

COc1cccc(OC)c1C(=O)OCc1cc(O)ccc1O[C@@H]1O[C@H](CO)[C@@H](O)[C@H](O)[C@H]1O [Curculigoside] (10 µM)
0: [1] | [2] | [3] | [4] | [5] | [6] | [7] | [8] | [9] | [10] | [11] | [12] | [13] | [14] | [15] | [16]

C=CC(=O)Nc1cc(C)ccc1Nc1nc(Nc2cc(OC)ncc2C)ncc1C(F)(F)F (10 µM)
0: [1] | [2] | [3] | [4] | [5] | [6] | [7] | [8] | [9] | [10] | [11] | [12] | [13] | [14] | [15] | [16]

Oc1cc(O)c2cc(O)c(-c3cc(O)c(O)c(O)c3)[o+]c2c1 [Delphinidin (chloride)] (10 µM)
0: [1] | [3] | [4] | [5] | [6] | [8] | [10] | [11] | [16]
3: [7] | [9] | [13]
1: [12] | [15]
2: [2] | [14]

C[C@@H](c1ccc(F)cc1)n1nnc2cnc3ccc(-c4ccc5ocnc5c4)cc3c21 (10 µM)
0: [1] | [2] | [3] | [4] | [5] | [6] | [7] | [8] | [9] | [10] | [11] | [12] | [13] | [14] | [15] | [16]

O=C(CSC1=NCCN1)NC1CCCCCC1 [ICCB-19 (hydrochloride)] (2.5 µM)
0: [1] | [2] | [3] | [4] | [5] | [6] | [7] | [8] | [9] | [10] | [11] | [12] | [13] | [14] | [15] | [16]

CCc1c(C(=O)NNC(=O)C(O)c2cc(F)cc(F)c2)ccc(O)c1C (stereo not drawn) (10 µM)
0: [1] | [2] | [3] | [4] | [5] | [6] | [7] | [8] | [9] | [10] | [11] | [12] | [13] | [14] | [15] | [16]

C[C@@H]1COCCN1c1cc(C2([S@@](C)(=N)=O)CC2)nc(-c2ccnc3[nH]ccc23)n1 [(S)-Ceralasertib] (10 µM)
0: [1] | [2] | [3] | [4] | [5] | [6] | [7] | [8] | [9] | [10] | [11] | [12] | [13] | [14] | [15] | [16]

COc1ncc(Cl)cc1S(=O)(=O)Nc1ccc(F)c(C#Cc2cnc(N)nc2)c1F (2.5 µM)
0: [1] | [2] | [3] | [4] | [5] | [6] | [7] | [8] | [9] | [10] | [11] | [12] | [13] | [14] | [15] | [16]

Cc1c(-c2c(F)cc(C(N)=O)c3[nH]c4c(c23)CC[C@H](C(C)(C)O)C4)cccc1-n1c(=O)c2cccc(F)c2n(C)c1=O (2.5 µM)
0: [1] | [2] | [3] | [4] | [5] | [6] | [7] | [8] | [9] | [10] | [11] | [12] | [13] | [14] | [15] | [16]

O=c1[nH]c(=O)n([C@@H]2O[C@H](CO)[C@@H](O)[C@@H]2O)cc1/C=C/Br [Sorivudine] (10 µM)
0: [1] | [2] | [3] | [4] | [5] | [6] | [7] | [8] | [9] | [10] | [11] | [12] | [13] | [14] | [15] | [16]

Cc1ccccc1-n1c([C@H](C)Nc2nc(N)nc3nc[nH]c23)nc2cccc(C)c2c1=O [CAL-130 (Hydrochloride)] (10 µM)
0: [1] | [2] | [3] | [4] | [5] | [6] | [7] | [8] | [9] | [10] | [11] | [12] | [13] | [14] | [15] | [16]

COc1cc2nccc(Oc3ccc(NC(=O)NC4CC4)c(Cl)c3)c2cc1C(N)=O [Lenvatinib] (10 µM)
2: [3]
0: [1] | [2] | [4] | [5] | [6] | [7] | [8] | [10] | [11] | [12] | [13] | [14] | [16]
3: [9] | [15]

CCS(=O)(=O)Nc1ccc2[nH]c(O)c(C(=Nc3ccc(CN4CCCCC4)cc3)c3ccccc3)c2c1 [Hesperadin] (2.5 µM)
4: [10]
2: [8] | [11]
0: [1] | [2] | [3] | [4] | [5] | [7] | [12] | [13] | [14] | [16]
3: [9]
1: [6] | [15]

COc1cc2ncc(-c3ccccc3)nc2cc1OC [Tyrphostin AG1296] (10 µM)
0: [1] | [2] | [3] | [4] | [5] | [6] | [7] | [8] | [9] | [10] | [11] | [12] | [13] | [14] | [15] | [16]

CC(C)(O)CNc1ncc(-c2ccnc(Nc3ccnc(Cl)c3)n2)c(CC2CC2)n1 (2.5 µM)
0: [1] | [2] | [3] | [4] | [5] | [6] | [7] | [8] | [9] | [10] | [11] | [12] | [13] | [14] | [15] | [16]

Cn1cc(-c2ccc3c(c2)CCN3C(=O)Cc2cccc(C(F)(F)F)c2)c2c(N)ncnc21 (2.5 µM)
0: [1] | [2] | [3] | [4] | [5] | [6] | [7] | [8] | [9] | [10] | [11] | [12] | [13] | [14] | [15] | [16]

COc1cc2nccc(Oc3ccc(NC(=O)NC4CC4)c(Cl)c3)c2cc1C(N)=O [Lenvatinib (mesylate)] (10 µM)
0: [1] | [2] | [3] | [4] | [5] | [6] | [7] | [13] | [14]
3: [9] | [10]
2: [15]
1: [8] | [11] | [12] | [16]

Cc1[nH]c(/C=C2\C(=O)Nc3ccc(F)cc32)c(C)c1C(=O)N[C@H]1CCN(C(=O)N(C)C)C1 [Vorolanib] (10 µM)
0: [1] | [2] | [3] | [4] | [5] | [6] | [7] | [8] | [9] | [10] | [11] | [12] | [13] | [14] | [15] | [16]
